Assay results from paper PMC2364652.

Protein sequences, listed by entry. Tags and fused reporters are not part of them. Lines headed by an entry give the natural chain unless they say otherwise; changes in a name come on top.
UniProt O75791: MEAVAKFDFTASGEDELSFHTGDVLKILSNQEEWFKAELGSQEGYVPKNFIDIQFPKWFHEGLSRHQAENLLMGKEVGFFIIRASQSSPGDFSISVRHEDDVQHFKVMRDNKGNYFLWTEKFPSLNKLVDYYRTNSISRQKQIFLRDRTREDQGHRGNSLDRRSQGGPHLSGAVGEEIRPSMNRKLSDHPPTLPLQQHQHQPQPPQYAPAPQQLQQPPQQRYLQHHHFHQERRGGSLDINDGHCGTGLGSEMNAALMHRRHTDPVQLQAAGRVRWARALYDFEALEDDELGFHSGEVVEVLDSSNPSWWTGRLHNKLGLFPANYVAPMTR

Legend:
[1] = target: GST fusion protein of the C-terminal Grap2 SH3 domain (human) (UniProt O75791); assay: pull-down; BEAS-2B lysate in NP-40 lysis buffer incubated with GST fusion protein at 4°C for 2 hours, glutathione-Sepharose 4B beads, immunoblot; only the target purified
[2] = target: SH3 domain of Grap2 C-terminal (spot of the TranSignal SH3 domain array III) (human) (UniProt O75791); assay: peptide or protein array; TranSignal SH3 domain array III (34 human SH3 domains spotted in duplicate); membrane incubated with 30 µg/ml AQP5 WT overnight; detected with HRP-conjugated FLAG antibody; both purified

With “full length wild-type AQP5 (aquaporin 5) (from UniProt P55064 1-265)” the binding [1] was “binds” and the binding [2] was “binds”.

No constants are given. Whether binding was seen depends on the method and setting. Binding calls can cover weak binding; strength is not graded here. For some assays here: In cells and extracts the contact can be indirect.
